Source: US20260158076A1
These are yes or no findings as the source states them, for the method shown. Some results given as binding are weak or reduced against the parent protein; the word gives no strength.

By UniProt entry, the sequences of proteins in these tests, tags left out. Residues count along the entry.
UniProt P68082, residues 2-154: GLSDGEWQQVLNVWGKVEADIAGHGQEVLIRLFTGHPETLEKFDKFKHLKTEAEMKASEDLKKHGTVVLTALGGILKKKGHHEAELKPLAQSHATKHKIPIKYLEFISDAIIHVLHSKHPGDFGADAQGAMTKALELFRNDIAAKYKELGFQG

Assays:
[1] = target: Fmoc-DDIKVAV self-assembled peptide hydrogel; assay: SAXS of hydrogel and myoglobin:hydrogel samples (indirect, structural)
[2] = target: Fmoc-DDIKVAV self-assembled peptide hydrogel; assay: TEM, FTIR and CD of hydrogel with and without myoglobin (indirect, structural)

## horse skeletal muscle myoglobin (Equus caballus) (from UniProt P68082 2-154)
[1]
  binding: binds
[2]
  binding: binds
